Assay [1] concerns the target Aspergillus oryzae Rib2 deaminase (Aspergillus oryzae) (UniProt Q2UFA9). Kind of assay: AUC; sedimentation velocity, 0.3 mg/ml protein in 20 mM PBS pH 7.5, 293 K, 42 000 rev/min, analysed with SEDFIT; both purified.
Assay [2] deals with AoRib2 deaminase domain (residues 1-188) (Aspergillus oryzae) (UniProt Q2UFA9). Described as above.

The values below come from paper PMC8256712, “Crystal structures of Aspergillus oryzae Rib2 deaminase: the functional mechanism involved in riboflavin biosynthesis” (IUCrJ, 2021).

No constants are given. Whether binding was seen depends on the method and setting.

B1: Aspergillus oryzae Rib2 deaminase (enzyme, UniProt Q2UFA9 1-222)
chain: MQSPHAKYLRECLSLAEKSPPRPTNFRVGAILVSRKEGDYKTEDDRIVSTGYTMELAGNTHAEQCCLSNYAAVHSVPEDRVWEVLPSEPDRKLVMYVTMEPCGKRLSGNLPCVQRIIRTRQGDRKGIQKIYFGVKEPGTFVGGSEGCQMLTAAGIDWQVVNGLEREILEVAVAGHENREEEVKAALDTVETNIDDISDDERRRQQEAQRNPKKRMMEANLLG
Regarding B1, the binding entry in assay [1] is given as “no binding (tested: 0.3 mg ml^-1)”.

B2: AoRib2 deaminase domain (residues 1-188) (domain or fragment, UniProt Q2UFA9 1-188)
chain: MQSPHAKYLRECLSLAEKSPPRPTNFRVGAILVSRKEGDYKTEDDRIVSTGYTMELAGNTHAEQCCLSNYAAVHSVPEDRVWEVLPSEPDRKLVMYVTMEPCGKRLSGNLPCVQRIIRTRQGDRKGIQKIYFGVKEPGTFVGGSEGCQMLTAAGIDWQVVNGLEREILEVAVAGHENREEEVKAALDT
In the case of B2, the binding result in assay [2] is recorded as “no binding (tested: 0.3 mg ml^-1)”.
